Source: publication PMC4577213
Results are given in words; binding and its absence hold for the method and conditions named. Binding seen in cells or lysates may run through a third protein. Some entries that bind do so weakly or less than the wild type. Where a sequence is shown, tags or fusion partners need not be part of it.

The chains behind the UniProt entries cited, without tags or fusion partners. Where a name states a change or a piece, a line headed by the entry shows the natural chain unless it says otherwise.
UniProt P05205: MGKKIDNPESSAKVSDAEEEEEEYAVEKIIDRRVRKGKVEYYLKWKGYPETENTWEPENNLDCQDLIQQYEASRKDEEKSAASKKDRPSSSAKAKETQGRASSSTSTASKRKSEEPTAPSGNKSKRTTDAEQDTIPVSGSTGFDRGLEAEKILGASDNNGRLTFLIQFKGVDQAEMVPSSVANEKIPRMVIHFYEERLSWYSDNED
UniProt Q94517: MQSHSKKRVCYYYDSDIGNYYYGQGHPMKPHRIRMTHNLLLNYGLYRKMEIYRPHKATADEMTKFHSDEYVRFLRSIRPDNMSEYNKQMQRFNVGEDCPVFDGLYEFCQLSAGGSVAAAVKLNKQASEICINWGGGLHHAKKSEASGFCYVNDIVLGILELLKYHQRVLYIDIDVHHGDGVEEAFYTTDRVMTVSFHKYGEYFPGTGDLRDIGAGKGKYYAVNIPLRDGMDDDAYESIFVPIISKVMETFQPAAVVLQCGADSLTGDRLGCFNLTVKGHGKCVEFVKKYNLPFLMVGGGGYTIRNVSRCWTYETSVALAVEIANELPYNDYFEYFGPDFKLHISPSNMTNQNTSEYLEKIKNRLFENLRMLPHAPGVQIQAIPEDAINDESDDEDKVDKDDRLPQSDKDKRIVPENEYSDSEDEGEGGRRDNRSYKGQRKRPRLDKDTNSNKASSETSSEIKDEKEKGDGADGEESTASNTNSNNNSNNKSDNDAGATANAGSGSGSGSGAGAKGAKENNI
UniProt P45975: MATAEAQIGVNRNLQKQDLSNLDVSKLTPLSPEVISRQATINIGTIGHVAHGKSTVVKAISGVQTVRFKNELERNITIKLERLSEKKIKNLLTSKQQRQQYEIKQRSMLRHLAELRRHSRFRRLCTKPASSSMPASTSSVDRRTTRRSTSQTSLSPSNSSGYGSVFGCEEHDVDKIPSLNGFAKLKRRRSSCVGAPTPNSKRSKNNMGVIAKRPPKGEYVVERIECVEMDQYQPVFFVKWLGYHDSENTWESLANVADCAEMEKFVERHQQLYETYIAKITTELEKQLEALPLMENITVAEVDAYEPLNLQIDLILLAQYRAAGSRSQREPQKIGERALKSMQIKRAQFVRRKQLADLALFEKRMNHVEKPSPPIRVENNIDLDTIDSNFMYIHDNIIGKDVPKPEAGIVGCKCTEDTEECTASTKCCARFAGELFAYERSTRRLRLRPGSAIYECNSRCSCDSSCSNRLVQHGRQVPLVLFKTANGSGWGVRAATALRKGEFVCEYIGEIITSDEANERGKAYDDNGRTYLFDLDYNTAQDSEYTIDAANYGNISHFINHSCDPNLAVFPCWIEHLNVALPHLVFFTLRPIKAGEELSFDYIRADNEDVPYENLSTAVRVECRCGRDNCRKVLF

T1: V5-tagged RRP6 (D. melanogaster) (UniProt Q9VFF3)
T1 sequence: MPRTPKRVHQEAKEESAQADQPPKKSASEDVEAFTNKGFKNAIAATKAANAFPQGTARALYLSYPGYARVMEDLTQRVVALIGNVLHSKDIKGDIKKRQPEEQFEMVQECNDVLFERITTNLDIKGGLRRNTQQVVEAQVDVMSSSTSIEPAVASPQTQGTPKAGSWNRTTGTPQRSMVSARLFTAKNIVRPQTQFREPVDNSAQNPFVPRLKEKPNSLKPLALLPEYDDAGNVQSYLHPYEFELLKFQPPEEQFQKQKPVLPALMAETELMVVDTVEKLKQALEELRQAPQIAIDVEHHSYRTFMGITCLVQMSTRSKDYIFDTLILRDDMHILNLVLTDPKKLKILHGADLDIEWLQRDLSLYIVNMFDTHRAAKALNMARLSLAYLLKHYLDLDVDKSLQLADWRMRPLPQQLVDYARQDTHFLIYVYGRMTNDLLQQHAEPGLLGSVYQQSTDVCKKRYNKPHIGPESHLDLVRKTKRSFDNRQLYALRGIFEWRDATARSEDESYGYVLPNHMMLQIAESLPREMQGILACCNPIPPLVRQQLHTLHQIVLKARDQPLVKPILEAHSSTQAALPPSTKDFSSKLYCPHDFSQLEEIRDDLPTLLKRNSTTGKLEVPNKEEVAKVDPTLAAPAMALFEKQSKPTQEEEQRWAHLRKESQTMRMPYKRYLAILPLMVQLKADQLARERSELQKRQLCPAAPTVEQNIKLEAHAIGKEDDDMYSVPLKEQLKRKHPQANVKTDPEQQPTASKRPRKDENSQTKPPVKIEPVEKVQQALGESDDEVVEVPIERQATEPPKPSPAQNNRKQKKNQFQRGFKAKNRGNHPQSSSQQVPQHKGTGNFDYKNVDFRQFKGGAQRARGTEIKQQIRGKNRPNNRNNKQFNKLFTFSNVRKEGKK


Assays:
[1] = target: T1, V5-tagged RRP6 (D. melanogaster); experiment: co-IP; nuclear extracts (sonicated in PBS) of S2-RRP6-V5 cells; IP with anti-V5, and reciprocal IP with antibodies against endogenous HP1a and RPD3; Western blotting
[2] = target: Heterochromatin Protein 1a (D. melanogaster (endogenous in S2)) (UniProt P05205); experiment: as above
[3] = target: RPD3 (D. melanogaster (endogenous in S2)) (UniProt Q94517); experiment: as above
[4] = target: HA-tagged SU(VAR)3-9 (D. melanogaster) (UniProt P45975); experiment: co-IP; nuclear extracts of S2 cells expressing both SU(VAR)3-9-HA and RRP6-V5; IP with anti-HA; Western blotting
[5] = target: HA-tagged SU(VAR)3-9 (D. melanogaster) (UniProt P45975); experiment: proximity ligation; fixed S2 cells expressing SU(VAR)3-9-HA and RRP6-V5, antibodies against HA and V5, Duolink probes

Row | binding [1] | binding [2] | binding [3] | binding [4] | binding [5] | Molecule
1 | binds | – | – | – | – | RPD3 (from UniProt Q94517 1-521) (enzyme)
2 | – | binds | binds | binds | binds | V5-tagged RRP6 (enzyme, UniProt Q9VFF3 1-900) MPRTPKRVHQEAKEESAQADQPPKKSASEDVEAFTNKGFKNAIAATKAANAFPQGTARALYLSYPGYARVMEDLTQRVVALIGNVLHSKDIKGDIKKRQPEEQFEMVQECNDVLFERITTNLDIKGGLRRNTQQVVEAQVDVMSSSTSIEPAVASPQTQGTPKAGSWNRTTGTPQRSMVSARLFTAKNIVRPQTQFREPVDNSAQNPFVPRLKEKPNSLKPLALLPEYDDAGNVQSYLHPYEFELLKFQPPEEQFQKQKPVLPALMAETELMVVDTVEKLKQALEELRQAPQIAIDVEHHSYRTFMGITCLVQMSTRSKDYIFDTLILRDDMHILNLVLTDPKKLKILHGADLDIEWLQRDLSLYIVNMFDTHRAAKALNMARLSLAYLLKHYLDLDVDKSLQLADWRMRPLPQQLVDYARQDTHFLIYVYGRMTNDLLQQHAEPGLLGSVYQQSTDVCKKRYNKPHIGPESHLDLVRKTKRSFDNRQLYALRGIFEWRDATARSEDESYGYVLPNHMMLQIAESLPREMQGILACCNPIPPLVRQQLHTLHQIVLKARDQPLVKPILEAHSSTQAALPPSTKDFSSKLYCPHDFSQLEEIRDDLPTLLKRNSTTGKLEVPNKEEVAKVDPTLAAPAMALFEKQSKPTQEEEQRWAHLRKESQTMRMPYKRYLAILPLMVQLKADQLARERSELQKRQLCPAAPTVEQNIKLEAHAIGKEDDDMYSVPLKEQLKRKHPQANVKTDPEQQPTASKRPRKDENSQTKPPVKIEPVEKVQQALGESDDEVVEVPIERQATEPPKPSPAQNNRKQKKNQFQRGFKAKNRGNHPQSSSQQVPQHKGTGNFDYKNVDFRQFKGGAQRARGTEIKQQIRGKNRPNNRNNKQFNKLFTFSNVRKEGKK
